{"source": "paper PMC8767186", "binders": {"B1": {"name": "Kre28-5xFlag (protein, UniProt Q04431 1-385)", "chain": "MDTGSASIKDYETVLTDIEDSIAVSSEEVLNNQELRLKNTLHEITSSILAINEENKFVNPLRNDESLDVEGKEVFVNPKILSAKIKEFNKLMELLKLTYLEQETLDYFFRFTLSSTKPLQLDSEKDPQFVKLNERVNDLKEEISNVQESKIEQIKAEIQETGHNFAERQDLINELYLEATGDIENCWDSLNELKNLTNKEDKNMMGEKDTILNSSDSDDFVEETYTNWQKLLFLQKQNQRLTKELKEMHEVKNQIIRKGEQSKKEDSGHLMANESELCQSINLLTKFWEKHFLLKGSKTTILNFEIFTQLGKVQFEIKDMQYIIAISLSDLKRPMIKDITILQKAGGNIVTDIEASSKFNNKYRNNTKVQIFEVMDDIISELTNE"}, "B2": {"name": "GFP-Kre28^FL (protein, UniProt Q04431 1-385)", "chain": "B1 chain"}}, "key": {"[1]": {"molecular_target": "T1, Spc105^455::GFP (FL) (S. cerevisiae) (UniProt P53148)", "T1 sequence": "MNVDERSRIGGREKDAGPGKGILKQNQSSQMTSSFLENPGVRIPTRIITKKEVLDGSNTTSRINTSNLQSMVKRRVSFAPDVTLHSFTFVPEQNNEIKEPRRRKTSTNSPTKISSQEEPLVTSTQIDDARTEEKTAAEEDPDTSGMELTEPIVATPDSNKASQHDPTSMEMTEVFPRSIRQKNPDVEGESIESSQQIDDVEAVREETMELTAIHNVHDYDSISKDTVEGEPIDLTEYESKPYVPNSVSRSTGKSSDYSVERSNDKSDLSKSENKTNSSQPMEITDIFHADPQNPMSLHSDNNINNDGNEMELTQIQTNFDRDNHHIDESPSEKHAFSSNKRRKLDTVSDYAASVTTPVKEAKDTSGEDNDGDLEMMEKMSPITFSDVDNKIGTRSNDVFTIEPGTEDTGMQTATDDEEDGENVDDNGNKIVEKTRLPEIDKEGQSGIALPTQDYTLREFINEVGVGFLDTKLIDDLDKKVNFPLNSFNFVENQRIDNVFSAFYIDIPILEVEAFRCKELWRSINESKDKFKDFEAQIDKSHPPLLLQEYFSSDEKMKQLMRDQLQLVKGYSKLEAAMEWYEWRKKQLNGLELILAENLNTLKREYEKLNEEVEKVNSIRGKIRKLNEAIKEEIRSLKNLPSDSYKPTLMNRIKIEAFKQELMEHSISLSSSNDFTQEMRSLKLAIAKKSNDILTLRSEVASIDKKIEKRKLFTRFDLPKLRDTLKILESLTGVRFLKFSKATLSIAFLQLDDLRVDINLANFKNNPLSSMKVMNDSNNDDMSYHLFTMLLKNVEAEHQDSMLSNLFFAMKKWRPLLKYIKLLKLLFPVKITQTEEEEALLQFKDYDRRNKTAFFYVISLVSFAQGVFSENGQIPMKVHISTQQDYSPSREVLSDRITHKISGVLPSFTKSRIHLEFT", "test": "co-IP; GFP-Trap beads (Chromotek) on cleared yeast lysates in buffer H 0.15 (25 mM HEPES pH 8.0, 150 mM KCl, 0.1% IGEPAL), overnight; blots with anti-GFP and anti-Flag"}, "[2]": {"molecular_target": "T2, spc105^Δ313–638::GFP (S. cerevisiae) (UniProt P53148)", "T2 sequence": "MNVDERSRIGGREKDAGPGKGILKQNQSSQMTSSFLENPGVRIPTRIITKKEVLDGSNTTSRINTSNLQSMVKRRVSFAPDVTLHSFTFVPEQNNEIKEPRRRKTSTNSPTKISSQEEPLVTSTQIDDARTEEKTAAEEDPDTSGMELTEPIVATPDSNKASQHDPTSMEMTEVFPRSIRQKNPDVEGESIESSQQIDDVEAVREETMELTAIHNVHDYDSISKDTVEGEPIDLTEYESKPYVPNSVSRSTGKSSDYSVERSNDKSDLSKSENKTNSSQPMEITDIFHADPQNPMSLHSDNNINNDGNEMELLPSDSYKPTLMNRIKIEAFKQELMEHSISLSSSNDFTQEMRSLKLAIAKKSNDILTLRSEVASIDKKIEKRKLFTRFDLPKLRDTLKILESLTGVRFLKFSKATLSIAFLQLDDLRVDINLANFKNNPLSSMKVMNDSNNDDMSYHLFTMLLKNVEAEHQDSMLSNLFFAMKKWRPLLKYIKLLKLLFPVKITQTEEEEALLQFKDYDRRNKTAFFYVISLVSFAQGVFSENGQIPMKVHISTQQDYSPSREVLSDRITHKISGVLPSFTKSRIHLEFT", "test": "co-IP; GFP-Trap beads (Chromotek) on cleared yeast lysates in buffer H 0.15 (25 mM HEPES pH 8.0, 150 mM KCl, 0.1% IGEPAL), overnight; blots with anti-GFP and anti-Flag"}, "[3]": {"molecular_target": "T3, Spc105-mCherry (S. cerevisiae) (UniProt P53148)", "T3 sequence": "T1 sequence", "test": "co-IP; RFP-Trap beads (Chromotek) on cleared yeast lysates in buffer H 0.15 (25 mM HEPES pH 8.0, 150 mM KCl, 0.1% IGEPAL), overnight; blots with anti-GFP and anti-DsRed; band intensities by ImageJ, normalised to full length, input and Spc105 IP"}}, "note": "These are yes or no findings as the source states them, for the method shown. Binding seen in cells or lysates may run through a third protein. Some entries that bind do so weakly or less than the wild type. Sequences can lack the tags named with a protein."}
{"binder": "B1", "values": [{"measurement": "binding", "setting": "[1]", "result": "binds"}, {"measurement": "binding", "setting": "[2]", "result": "no binding"}]}
{"binder": "B2", "values": [{"measurement": "binding", "setting": "[3]", "result": "binds"}]}
